Source: patent US20060029603A1
Where a chain is given by its changes, count along the chain named. These are yes or no findings as the source states them, for the method shown. Some entries that bind do so weakly or less than the wild type.

B1: H15L16 (antibody, human IgG1, kappa, V domains shown)
VH: QVQLVQSGAEVVKPGASVKLSCKASGYTFTSYWMHWVKQRPGQGLEWIGNINPSNGGTNYNEKFKSKATLTVDTSSSTAYMELSSLRSEDSAVYYCELGQGYWGQGTLVTVSS
VL: DIVMTQSPLSNPVTLGQPVSISCRSSKSLLYKDGKTYLNWFLQRPGQSPQLLIYLMSTRASGVPDRFSGGGSGTDFTLKISRVEAEDVGVYYCQQLVEYPLTFGQGTKLEIKR
B2: H15L17 (antibody, V domains shown)
VH: B1 VH
VL: B1 VL with S7D, N11L, V19A, L42Q, P64S, G70S
B3: H15L18 (antibody, human IgG1, kappa, V domains shown)
VH: B1 VH
VL: B1 VL with S7D, P64S, G70S
B4: H14L13 (antibody, human IgG1, kappa, V domains shown)
VH: B1 VH with R40A, K67R, V72R, S76T, S91T
VL: B1 VL with N11L, V19A, L42Q
B5: H18L13 (antibody, human IgG1, kappa, V domains shown)
VH: B1 VH with T74K
VL: B1 VL with N11L, V19A, L42Q
B6: H6L18 (antibody, human IgG1, kappa, V domains shown)
VH: B1 VH with V12K, L20V, K38R, R40A, K67R, L70M, V72R, S76T, S91T
VL: B1 VL with S7D, P64S, G70S
B7: H15L13 (antibody, human IgG1, kappa, V domains shown)
VH: B1 VH
VL: B1 VL with N11L, V19A, L42Q
B8: H18L18 (antibody, human IgG1, kappa, V domains shown)
VH: B1 VH with T74K
VL: B1 VL with S7D, P64S, G70S
B9: H14L18 (antibody, human IgG1, kappa, V domains shown)
VH: B1 VH with R40A, K67R, V72R, S76T, S91T
VL: B1 VL with S7D, P64S, G70S
B10: H1L11 (antibody, human IgG1, kappa, V domains shown)
VH: QVQLVQSGAEVKKPGASVKVSCKASGYTFTSYWMHWVRQAPGQGLEWMGNINPSNGGTNYNEKFKSRVTMTRDTSTSTVYMELSSLRSEDTAVYYCELGQGYWGQGTLVTVSS
VL: B1 VL with M4I, N11L, V19A, L42Q
B11: H14L16 (antibody, human IgG1, kappa, V domains shown)
VH: B1 VH with R40A, K67R, V72R, S76T, S91T
VL: B1 VL
B12: H6L17 (antibody, human IgG1, kappa, V domains shown)
VH: B10 VH with M48I, V68A, V79A
VL: B1 VL with S7D, N11L, V19A, L42Q, P64S, G70S
B13: H18L16 (antibody, human IgG1, kappa, V domains shown)
VH: B1 VH with T74K
VL: B1 VL
B14: H16L17 (antibody, V domains shown)
VH: B1 VH with V12K, L20V, T74K, S76T, S91T
VL: B1 VL with S7D, N11L, V19A, L42Q, P64S, G70S
B15: H18L17 (antibody, V domains shown)
VH: B1 VH with T74K
VL: B1 VL with S7D, N11L, V19A, L42Q, P64S, G70S
B16: H14L17 (antibody, V domains shown)
VH: B1 VH with R40A, K67R, V72R, S76T, S91T
VL: B1 VL with S7D, N11L, V19A, L42Q, P64S, G70S
B17: H6L15 (antibody, human IgG1, kappa, V domains shown)
VH: B10 VH with M48I, V68A, V79A
VL: B1 VL with N11L, V19A, P64S
B18: H6L13 (antibody, human IgG1, kappa, V domains shown)
VH: B10 VH with M48I, V68A, V79A
VL: B1 VL with N11L, V19A, L42Q

Biological target: GST-human NOGO-A56 (human) [GST: P08515]
Assay: ELISA, coated GST-human NOGO-A56, transfection supernatant, anti-human kappa-HRP, OD 490 nm

binding | Binder
binds | B1
binds | B2
binds | B3
binds | B4
binds | B5
binds | B6
binds | B7
binds | B8
binds | B9
binds | B10
binds | B11
binds | B12
binds | B13
binds | B14
binds | B15
binds | B16
binds | B17
binds | B18

Biological target: GST-human NOGO-A56 (human) [GST: P08515]
Assay: ELISA, coated GST-human NOGO-A56, purified antibody, anti-human kappa-HRP, OD 490 nm

binding | Binder
binds | B13
binds | B18

Biological target: GST-human NOGO-A56 (human) [GST: P08515]
Assay: ELISA, GST-human NOGO-A56 coated; small scale transient supernatants in triplicate

binding | Binder
binds | B13
